Measured values as given in the supplement of paper PMC12889115.
This is one part of the list. These are raw signals, not scaled to a control.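 First-pass screen: polymyxin B was added at a level that permeabilizes the Salmonella outer membrane while sparing the inner membrane. DMSO wells, with and without polymyxin B, defined maximum growth. Because plates differed from one another, each plate's data were ranked separately and the compounds with the lowest OD600 were carried forward as hits.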

Tested on: Salmonella enterica serovar Typhimurium SL1344
Test: bacterial growth OD600 after 18 h with compound and polymyxin B; higher = more bacterial growth (less inhibition)
Conditions: 50 µM, Mueller-Hinton broth

Compound | bacterial growth OD600 (polymyxin B 1 µg/mL) | bacterial growth OD600 (polymyxin B 0.75 µg/mL)
CCN(C)Cc1cnc(S(=O)(=O)CC)n1CCc1ccccc1 | 1.18 | 
Cc1cccc(CN2CCC(C(=O)Nc3ccc(Oc4cccnc4)cc3)CC2)c1 | 0.604 | 
CCC(O)C1CCN(Cc2cnc(S(=O)(=O)C(C)C)n2CCc2ccccc2)CC1 (stereo not given) | 0.024 | 
c1ccc(CCC2CCCCN2Cc2nc(-c3cnccn3)no2)nc1 (stereo not given) | 1 | 
CC1CN(CCC(=O)N2CCC(C(C)N3CCOCC3)CC2)Cc2cc(Cl)ccc2O1 (stereo not given) |  | 0.734
CCn1cc(C(=O)N2CCCC(CCc3ccccc3F)C2)cn1 (stereo not given) |  | 0.447
C=CCCC(=O)NC(C)c1cnc(N(C)C2CCCCC2)nc1C (stereo not given) |  | 0.553
COC(=O)[C@@H](NC(=O)CC1(c2ccc(OC)cc2)CC(=O)N(C2CCCC2)C1=O)c1ccccc1 (stereo not given in full) |  | 0.852
O=C(NC1CCCC1)c1ccc(OC2CCN(C3CCC3)CC2)c(Cl)c1 | 1.08 | 
COCCn1cc(C(=O)NC2CCCCCCC2)c(=O)c(C(=O)N2C[C@@H](C)O[C@@H](C)C2)c1 |  | 0.809
CN(CC1CCCN(CCc2ccc(Cl)cc2)C1)C(=O)c1ccsc1 (stereo not given) | 0.863 | 
Cc1nc2ccccc2n1Cc1cc(C(=O)N2CCCCCC2)n[nH]1 | 0.863 | 
Cc1nc(N2CCC(C(=O)N3CCC(O)(c4cccnc4)CC3)CC2)nc2ccc(C(C)C)cc12 |  | 0.782
Cc1cc(C(=O)N2CCCC(CNC(=O)c3cc4ccccc4[nH]3)C2)nc(C)n1 (stereo not given) | 1.05 | 
COc1ccc(CCc2nnc(CCC(=O)NCc3ccccc3F)o2)cc1 | 0.961 | 
CCNC(=O)c1cn(CCc2ccccc2)cc(C(=O)N2CCN(c3ccc(OC)cc3)CC2)c1=O |  | 0.77
COc1ccccc1-c1ccnc(-n2ncc(C(=O)N3CCN(C(C)C)CC3)c2C2CC2)n1 |  | 0.812
COCC(=O)Nc1cc(C(=O)N(C)Cc2ccc3nccnc3c2)cc2nc(-c3ccccc3)n(C)c12 |  | 0.829
CC(O)CNc1ccc(-c2nc(-c3cccc(C(F)(F)F)c3)no2)cn1 (stereo not given) |  | 0.021
c1ccc(CCCc2noc(-c3ccc(N4CCCO4)nc3)n2)cc1 |  | 0.001
COc1cccc(CCC2CCCN(C(=O)CCN3CCCCC3=O)C2)c1 (stereo not given) |  | 0.838
O=C(c1ccsc1)N1CCC2(CCCN(Cc3ccccc3F)C2=O)C1 (stereo not given) | 0.959 | 
Cn1c(C2CCC2)nc2cc(C(=O)N3CCN(c4ccccn4)CC3)cc(NC(=O)C3CCCO3)c21 (stereo not given) |  | 0.9
CC(=O)Nc1ccc(CN2CCCC(N3CCN(c4ccccc4)CC3)C2)cc1 (stereo not given) | 1.08 | 
CCOC(=O)C1(Cc2ccccc2F)CCCN(C(=O)CCOC)C1 (stereo not given) | 0.866 | 
COc1ccc(NC(=O)CCC2CCCN(CCCn3cccn3)C2)c(C)c1 (stereo not given) |  | 0.862
CC1(C)CC(C(=O)N2CCOc3c(cc(-c4cccnc4)cc3OCCc3cccs3)C2)CCO1 (stereo not given) |  | 0.72
O=C(Nc1cnn(-c2ccc(C(=O)N3C[C@@H]4C[C@H](C3)c3cccc(=O)n3C4)cc2)c1)c1ccoc1 |  | 0.855
CCc1ocnc1C(=O)N1CCC(C2CCN(c3ncccn3)CC2)C1 (stereo not given) |  | 0.884
COc1cccc(CNC(=O)CCC2CCCN(c3cc(C)nc(N)n3)C2)c1 (stereo not given) |  | 0.766

An excerpt from above in order of heavy-atom count, descending.
Compound | bacterial growth OD600 (polymyxin B 1 µg/mL) | bacterial growth OD600 (polymyxin B 0.75 µg/mL)
COCC(=O)Nc1cc(C(=O)N(C)Cc2ccc3nccnc3c2)cc2nc(-c3ccccc3)n(C)c12 |  | 0.829
c1ccc(CCC2CCCCN2Cc2nc(-c3cnccn3)no2)nc1 (stereo not given) | 1 | 
Cc1nc2ccccc2n1Cc1cc(C(=O)N2CCCCCC2)n[nH]1 | 0.863 | 
